These are yes or no findings as the source states them, for the method shown. In cells and extracts the contact can be indirect. Here binding means that the protein was enriched with, or labelled near, the bait; the list need not be complete.
Target: Strep-FLAG (SF)-tagged NDRG1, expressed in iSLK.RGB cells (human (cDNA from HEK293T)) (UniProt Q92597)
Experiment: affinity purification with mass spectrometry; tandem affinity purification of SF-tagged NDRG1 from iSLK.RGB lysate: Strep-Tactin Sepharose, desthiobiotin elution, then anti-FLAG M2 gel 4 hr at 4°C, 3xFLAG peptide elution; buffer W (50 mM Tris pH 7.9, 100 mM KCl, 0.1% Triton-X100); eluate to MS

Protein sequences, listed by entry. Tags and fused reporters are not part of them.
UniProt Q92597: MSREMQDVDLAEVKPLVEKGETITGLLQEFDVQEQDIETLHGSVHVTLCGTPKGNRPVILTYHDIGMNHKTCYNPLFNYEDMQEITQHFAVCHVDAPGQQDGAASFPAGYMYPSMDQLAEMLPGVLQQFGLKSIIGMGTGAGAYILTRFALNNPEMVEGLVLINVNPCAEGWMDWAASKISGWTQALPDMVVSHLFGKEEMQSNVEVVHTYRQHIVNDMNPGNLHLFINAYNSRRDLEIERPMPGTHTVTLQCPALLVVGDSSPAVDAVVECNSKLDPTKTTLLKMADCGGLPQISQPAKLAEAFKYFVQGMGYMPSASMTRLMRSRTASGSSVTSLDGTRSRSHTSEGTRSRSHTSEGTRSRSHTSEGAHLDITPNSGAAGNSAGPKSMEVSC
UniProt P12004: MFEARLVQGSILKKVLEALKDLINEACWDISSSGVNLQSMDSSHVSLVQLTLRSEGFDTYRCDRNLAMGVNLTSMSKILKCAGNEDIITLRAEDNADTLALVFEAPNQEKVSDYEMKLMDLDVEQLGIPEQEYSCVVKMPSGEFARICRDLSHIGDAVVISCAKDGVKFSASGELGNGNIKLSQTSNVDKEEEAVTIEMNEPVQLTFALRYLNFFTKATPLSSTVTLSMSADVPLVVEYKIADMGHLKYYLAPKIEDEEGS

binding: binds
Substance: proliferating cell nuclear antigen (PCNA), endogenous in iSLK.RGB cells (from UniProt P12004 1-261)
